The supplement of paper PMC10849652
The list shows a part of the results. Residues, ends and D or L forms follow the SMILES beside them. *: point of attachment. Cbz = O=C(OCc1ccccc1)*

Chains of the proteins cited; added tags and fusions are not shown. Lines headed by an entry give the natural chain unless they say otherwise; changes in a name come on top.
UniProt Q8TF74: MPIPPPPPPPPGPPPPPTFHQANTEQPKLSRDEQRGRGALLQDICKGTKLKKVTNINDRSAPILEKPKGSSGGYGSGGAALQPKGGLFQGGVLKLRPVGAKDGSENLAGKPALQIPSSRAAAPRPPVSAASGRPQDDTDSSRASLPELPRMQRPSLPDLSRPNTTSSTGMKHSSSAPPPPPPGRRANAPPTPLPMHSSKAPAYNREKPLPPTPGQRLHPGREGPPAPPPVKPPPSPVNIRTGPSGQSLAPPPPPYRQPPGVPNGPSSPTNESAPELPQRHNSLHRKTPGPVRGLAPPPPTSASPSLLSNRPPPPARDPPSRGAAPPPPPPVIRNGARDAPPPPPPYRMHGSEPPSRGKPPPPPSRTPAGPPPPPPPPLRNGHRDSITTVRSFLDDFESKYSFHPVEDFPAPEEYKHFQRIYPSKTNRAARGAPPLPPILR
UniProt Q14135: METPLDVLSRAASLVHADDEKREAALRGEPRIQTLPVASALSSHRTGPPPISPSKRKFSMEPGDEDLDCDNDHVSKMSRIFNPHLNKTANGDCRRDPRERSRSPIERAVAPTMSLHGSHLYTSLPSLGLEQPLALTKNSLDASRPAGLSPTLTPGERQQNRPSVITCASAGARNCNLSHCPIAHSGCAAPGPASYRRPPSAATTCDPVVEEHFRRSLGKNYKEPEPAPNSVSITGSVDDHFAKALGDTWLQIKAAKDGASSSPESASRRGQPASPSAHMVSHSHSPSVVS
UniProt P23381: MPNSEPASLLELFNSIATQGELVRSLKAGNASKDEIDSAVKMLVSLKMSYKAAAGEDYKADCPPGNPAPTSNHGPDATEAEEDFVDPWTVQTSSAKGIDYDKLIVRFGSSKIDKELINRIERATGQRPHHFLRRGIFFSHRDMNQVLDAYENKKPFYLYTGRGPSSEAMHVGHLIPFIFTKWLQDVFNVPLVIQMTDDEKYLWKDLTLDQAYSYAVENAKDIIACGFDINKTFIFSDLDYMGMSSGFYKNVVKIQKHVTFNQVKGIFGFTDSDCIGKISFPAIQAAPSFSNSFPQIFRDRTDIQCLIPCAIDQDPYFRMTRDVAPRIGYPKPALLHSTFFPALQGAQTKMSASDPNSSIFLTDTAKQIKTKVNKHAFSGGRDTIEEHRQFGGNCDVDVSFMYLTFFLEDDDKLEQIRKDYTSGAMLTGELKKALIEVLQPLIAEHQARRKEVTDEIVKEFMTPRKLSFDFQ
UniProt Q8NI36: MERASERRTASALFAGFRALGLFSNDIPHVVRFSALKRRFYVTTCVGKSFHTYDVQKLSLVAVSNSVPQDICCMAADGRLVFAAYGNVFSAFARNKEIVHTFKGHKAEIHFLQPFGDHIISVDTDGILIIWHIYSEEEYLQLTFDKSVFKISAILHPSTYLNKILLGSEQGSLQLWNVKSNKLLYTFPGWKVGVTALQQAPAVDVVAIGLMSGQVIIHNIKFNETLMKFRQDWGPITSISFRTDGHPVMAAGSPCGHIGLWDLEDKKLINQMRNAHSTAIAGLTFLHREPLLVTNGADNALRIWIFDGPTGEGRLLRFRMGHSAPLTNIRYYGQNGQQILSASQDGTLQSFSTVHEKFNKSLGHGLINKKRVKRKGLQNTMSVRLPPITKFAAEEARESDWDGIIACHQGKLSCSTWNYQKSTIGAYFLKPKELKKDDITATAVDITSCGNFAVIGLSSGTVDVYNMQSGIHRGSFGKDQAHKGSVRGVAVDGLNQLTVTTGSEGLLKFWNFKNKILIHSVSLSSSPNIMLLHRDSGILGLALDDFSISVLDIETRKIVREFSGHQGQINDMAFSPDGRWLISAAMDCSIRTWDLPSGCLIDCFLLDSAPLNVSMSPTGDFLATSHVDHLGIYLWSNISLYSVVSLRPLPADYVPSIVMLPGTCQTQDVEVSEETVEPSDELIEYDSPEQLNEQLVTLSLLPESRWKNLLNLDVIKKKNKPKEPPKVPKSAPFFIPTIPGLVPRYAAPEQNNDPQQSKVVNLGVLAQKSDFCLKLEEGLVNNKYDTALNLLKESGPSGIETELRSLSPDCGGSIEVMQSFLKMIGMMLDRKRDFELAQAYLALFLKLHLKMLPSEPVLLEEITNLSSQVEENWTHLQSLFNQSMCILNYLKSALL
UniProt Q96MX6, whole entry, looked up: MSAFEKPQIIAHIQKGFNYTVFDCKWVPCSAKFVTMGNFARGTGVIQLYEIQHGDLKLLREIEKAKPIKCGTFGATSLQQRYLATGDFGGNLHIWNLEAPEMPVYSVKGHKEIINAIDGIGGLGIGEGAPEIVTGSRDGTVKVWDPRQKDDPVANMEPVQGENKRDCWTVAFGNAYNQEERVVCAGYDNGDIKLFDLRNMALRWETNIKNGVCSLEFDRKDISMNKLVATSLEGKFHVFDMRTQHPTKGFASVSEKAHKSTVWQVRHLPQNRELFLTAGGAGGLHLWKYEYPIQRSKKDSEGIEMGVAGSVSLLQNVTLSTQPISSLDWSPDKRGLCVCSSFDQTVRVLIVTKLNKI
UniProt Q96RL7: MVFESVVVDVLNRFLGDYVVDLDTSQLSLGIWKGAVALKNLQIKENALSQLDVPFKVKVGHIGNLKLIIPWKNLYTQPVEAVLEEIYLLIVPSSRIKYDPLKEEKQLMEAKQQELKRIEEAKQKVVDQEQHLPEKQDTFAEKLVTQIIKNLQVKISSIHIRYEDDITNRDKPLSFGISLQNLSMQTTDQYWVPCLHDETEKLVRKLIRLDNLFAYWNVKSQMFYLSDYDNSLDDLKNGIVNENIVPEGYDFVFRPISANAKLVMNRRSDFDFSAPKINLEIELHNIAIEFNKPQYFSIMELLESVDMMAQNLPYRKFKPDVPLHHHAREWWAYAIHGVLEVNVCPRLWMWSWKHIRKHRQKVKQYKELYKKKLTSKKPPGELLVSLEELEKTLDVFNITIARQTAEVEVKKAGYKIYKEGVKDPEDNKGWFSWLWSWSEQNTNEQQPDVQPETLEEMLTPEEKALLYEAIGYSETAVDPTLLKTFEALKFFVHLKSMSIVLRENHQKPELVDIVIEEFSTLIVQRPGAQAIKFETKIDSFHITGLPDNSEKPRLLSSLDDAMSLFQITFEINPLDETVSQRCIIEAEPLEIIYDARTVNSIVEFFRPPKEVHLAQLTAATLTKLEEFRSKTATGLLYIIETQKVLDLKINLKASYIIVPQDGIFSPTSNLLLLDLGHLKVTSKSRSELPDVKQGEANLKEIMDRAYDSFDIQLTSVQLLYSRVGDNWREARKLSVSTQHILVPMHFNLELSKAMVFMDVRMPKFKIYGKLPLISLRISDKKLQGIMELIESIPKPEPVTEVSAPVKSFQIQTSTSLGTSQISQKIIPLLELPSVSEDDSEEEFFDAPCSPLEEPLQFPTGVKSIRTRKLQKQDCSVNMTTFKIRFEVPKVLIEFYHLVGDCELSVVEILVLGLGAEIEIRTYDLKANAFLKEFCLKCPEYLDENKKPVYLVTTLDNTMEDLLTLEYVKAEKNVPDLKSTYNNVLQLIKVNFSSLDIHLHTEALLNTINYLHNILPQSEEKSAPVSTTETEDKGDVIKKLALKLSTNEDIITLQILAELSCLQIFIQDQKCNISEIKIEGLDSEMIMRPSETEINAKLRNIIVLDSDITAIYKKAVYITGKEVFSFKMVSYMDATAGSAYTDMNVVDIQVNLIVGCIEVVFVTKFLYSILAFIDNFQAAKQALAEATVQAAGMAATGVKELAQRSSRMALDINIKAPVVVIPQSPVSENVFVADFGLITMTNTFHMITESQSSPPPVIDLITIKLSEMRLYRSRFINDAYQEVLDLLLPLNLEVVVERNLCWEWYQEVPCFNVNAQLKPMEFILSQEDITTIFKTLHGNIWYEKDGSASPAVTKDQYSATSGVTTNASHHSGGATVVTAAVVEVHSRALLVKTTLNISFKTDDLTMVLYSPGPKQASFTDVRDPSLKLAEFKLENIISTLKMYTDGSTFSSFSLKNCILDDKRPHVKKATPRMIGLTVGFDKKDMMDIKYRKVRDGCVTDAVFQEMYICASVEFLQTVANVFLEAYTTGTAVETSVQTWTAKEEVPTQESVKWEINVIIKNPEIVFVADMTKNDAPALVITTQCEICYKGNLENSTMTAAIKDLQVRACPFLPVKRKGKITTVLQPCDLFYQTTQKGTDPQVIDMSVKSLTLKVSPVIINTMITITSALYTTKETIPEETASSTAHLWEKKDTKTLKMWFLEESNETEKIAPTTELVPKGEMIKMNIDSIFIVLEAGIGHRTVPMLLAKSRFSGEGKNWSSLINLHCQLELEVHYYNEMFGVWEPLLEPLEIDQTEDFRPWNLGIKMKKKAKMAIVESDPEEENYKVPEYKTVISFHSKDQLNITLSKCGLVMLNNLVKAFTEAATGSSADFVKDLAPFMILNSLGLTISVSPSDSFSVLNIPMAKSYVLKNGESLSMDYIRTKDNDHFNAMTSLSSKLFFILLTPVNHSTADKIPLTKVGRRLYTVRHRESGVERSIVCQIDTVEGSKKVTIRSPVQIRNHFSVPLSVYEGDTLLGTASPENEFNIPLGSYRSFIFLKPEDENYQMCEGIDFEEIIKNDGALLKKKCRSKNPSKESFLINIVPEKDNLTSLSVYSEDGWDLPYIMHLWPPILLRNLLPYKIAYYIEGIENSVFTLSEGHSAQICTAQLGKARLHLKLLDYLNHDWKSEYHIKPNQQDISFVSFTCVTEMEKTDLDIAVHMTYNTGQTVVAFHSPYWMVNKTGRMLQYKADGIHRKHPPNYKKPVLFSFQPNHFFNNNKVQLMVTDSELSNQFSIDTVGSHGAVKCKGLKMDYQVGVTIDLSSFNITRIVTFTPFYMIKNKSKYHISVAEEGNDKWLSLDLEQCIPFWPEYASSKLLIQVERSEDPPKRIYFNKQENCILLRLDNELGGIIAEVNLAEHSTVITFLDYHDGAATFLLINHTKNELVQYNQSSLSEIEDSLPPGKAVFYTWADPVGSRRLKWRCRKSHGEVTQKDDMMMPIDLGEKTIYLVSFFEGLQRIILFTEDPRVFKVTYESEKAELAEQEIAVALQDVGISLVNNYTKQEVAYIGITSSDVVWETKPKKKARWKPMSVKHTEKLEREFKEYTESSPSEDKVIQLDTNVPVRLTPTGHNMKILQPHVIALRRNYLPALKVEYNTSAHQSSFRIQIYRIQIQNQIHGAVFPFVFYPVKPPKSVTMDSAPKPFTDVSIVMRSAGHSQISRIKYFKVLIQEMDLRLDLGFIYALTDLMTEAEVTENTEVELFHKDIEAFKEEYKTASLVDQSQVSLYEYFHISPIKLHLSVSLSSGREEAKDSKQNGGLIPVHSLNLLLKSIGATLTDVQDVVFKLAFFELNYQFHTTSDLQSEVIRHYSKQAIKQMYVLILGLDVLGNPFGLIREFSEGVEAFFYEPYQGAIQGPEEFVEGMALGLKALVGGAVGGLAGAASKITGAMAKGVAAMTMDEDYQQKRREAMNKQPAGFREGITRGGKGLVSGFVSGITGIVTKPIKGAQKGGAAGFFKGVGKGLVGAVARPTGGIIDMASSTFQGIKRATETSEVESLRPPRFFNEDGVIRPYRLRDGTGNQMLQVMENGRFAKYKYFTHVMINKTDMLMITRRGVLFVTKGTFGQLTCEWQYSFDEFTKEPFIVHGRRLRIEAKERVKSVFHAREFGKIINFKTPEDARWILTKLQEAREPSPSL
UniProt Q96FK6: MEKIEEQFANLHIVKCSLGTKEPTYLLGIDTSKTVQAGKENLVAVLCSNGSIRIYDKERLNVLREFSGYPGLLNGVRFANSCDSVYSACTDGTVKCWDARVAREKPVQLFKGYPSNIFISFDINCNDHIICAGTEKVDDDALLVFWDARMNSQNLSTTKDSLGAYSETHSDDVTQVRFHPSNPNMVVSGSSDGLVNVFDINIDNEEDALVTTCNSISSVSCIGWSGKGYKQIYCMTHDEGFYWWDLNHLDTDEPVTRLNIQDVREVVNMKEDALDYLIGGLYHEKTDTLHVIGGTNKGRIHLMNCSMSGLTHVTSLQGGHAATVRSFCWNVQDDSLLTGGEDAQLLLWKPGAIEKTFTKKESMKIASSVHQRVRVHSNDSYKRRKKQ
UniProt Q9NRW7: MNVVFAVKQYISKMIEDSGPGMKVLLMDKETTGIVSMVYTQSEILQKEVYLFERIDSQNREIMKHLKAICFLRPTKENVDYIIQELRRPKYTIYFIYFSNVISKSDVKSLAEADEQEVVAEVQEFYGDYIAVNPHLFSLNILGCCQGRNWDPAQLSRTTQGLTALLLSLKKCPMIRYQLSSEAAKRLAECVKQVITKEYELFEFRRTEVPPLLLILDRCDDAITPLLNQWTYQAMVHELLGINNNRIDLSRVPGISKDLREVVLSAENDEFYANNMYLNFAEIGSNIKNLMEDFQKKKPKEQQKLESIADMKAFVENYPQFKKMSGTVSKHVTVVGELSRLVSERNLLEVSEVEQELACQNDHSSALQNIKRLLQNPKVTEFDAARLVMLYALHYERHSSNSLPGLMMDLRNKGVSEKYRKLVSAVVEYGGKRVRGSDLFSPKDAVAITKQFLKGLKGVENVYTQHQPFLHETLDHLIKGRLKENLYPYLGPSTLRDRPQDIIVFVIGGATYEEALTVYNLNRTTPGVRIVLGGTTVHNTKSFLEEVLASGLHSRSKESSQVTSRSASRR

Key:
Assay in all cases: log2 fold change, soluble protein after heating vs DMSO (PISA); higher = thermal stabilisation; K562 cells, 10 uM, 30 min; active = over 0.2 and 3.5 SD of the protein, either way, in both replicates (recomputed)
erlotinib = compound: C#Cc1cccc(Nc2ncnc3cc(OCCOC)c(OCCOC)cc23)c1 [erlotinib]
Method in brief: (§1)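 Soluble protein was quantified by TMTpro 16plex LC-MS/MS after channel sums were equalised. It was obtained as the supernatant after 21,000xg for 90 min from pooled aliquots of K562 cells (2×10^6 cells/mL, 10 μM compound, 30 min) heated for 3 min across 48°C-58°C and extracted in PBS with 0.5% NP-40 at 4°C. Thermal stability values are relative to control samples and come from duplicates. They are given as log2 fold changes.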

[1] = compound: C/C(=N\NC(=O)C1=CC(=CC=C1)S(=O)(=O)N2CCOCC2)/C3=C(C=CC(=C3)Cl)O
Method in brief: as §1

[2] = compound: C1=CC(=C(C=C1Cl)C2=NC3=NC=CN=C3C(=N2)NC4=CC=NC=C4)F
Method in brief: as §1

[3] = compound: C1=CC(=CC=C1C2=NC3=C(N2)C=C(C=C3)C(=O)N)OC4=CC=C(C=C4)Cl
Method in brief: as §1

[4] = compound: C1=CC2=C(C=CC(=C2)/C=C\3/C(=O)NC(=NCC4=CC=CS4)S3)N=C1
Method in brief: as §1

[5] = compound: C1=CC2=NC=CN=C2C=C1/C=C/3\C(=O)NC(=O)S3
Method in brief: as §1

[6] = compound: C1=CC=C(C=C1)C2=NC(=C(N2)C3=CC=NC=C3)C4=CC(=C(C=C4)Cl)O
Method in brief: as §1

[7] = compound: C1=CC=C2C(=C1)C3=NNC4=CC=CC(=C43)C2=O
Method in brief: as §1

[8] = compound: C1CCN(C1)C(=O)NC2=CC=CC(=C2)NC3=NC=C(C(=N3)NCCC4=CN=CN4)Br
Method in brief: as §1

[9] = compound: C1CN(CCC1(CC2=CC=C(C=C2)Cl)N)C3=NC=NC4=C3C=CN4
Method in brief: as §1

IRAK-1-4 Inhibitor I = compound: C1COCCN1CCN2C3=CC=CC=C3N=C2NC(=O)C4=CC(=CC=C4)[N+](=O)[O-] [IRAK-1-4 Inhibitor I]
Method in brief: as §1

ibrutinib = compound: C=CC(=O)N1CCC[C@@H](n2nc(-c3ccc(Oc4ccccc4)cc3)c3c(N)ncnc32)C1 [ibrutinib]
Method in brief: as §1

[10] = compound: CC(=O)c1cnc2ccc(-c3cc(Cl)c(O)c(Cl)c3)nc2c1N[C@H]1CC[C@H](CN(C)C)CC1
Method in brief: as §1

ralimetinib = compound: CC(C)(C)Cn1c(N)nc2ccc(-c3[nH]c(C(C)(C)C)nc3-c3ccc(F)cc3)nc21 [ralimetinib]
Method in brief: as §1

[11] = compound: CC(C)(O)CC(=O)NCCn1ccc2ncnc(Nc3ccc(Oc4cccc(C(F)(F)F)c4)c(Cl)c3)c21
Method in brief: as §1

[12] = compound: CC(C)C1=C2N=C(C=C(N2N=C1)NCC3=CC=CC=C3)NCCCCCCN
Method in brief: as §1

[13] = compound: CC(C)C[C@@H](C=O)NC(=O)[C@H](CC(C)C)NC(=O)[C@H](CC(C)C)NC(=O)OCc1ccccc1
Method in brief: as §1

pinometostat = compound: CC(C)N(C[C@H]1O[C@@H](n2cnc3c(N)ncnc32)[C@H](O)[C@@H]1O)[C@H]1C[C@@H](CCc2nc3cc(C(C)(C)C)ccc3[nH]2)C1 [pinometostat]
Method in brief: as §1

[14] = compound: CC1=C(C(CC(=O)N1)C2=CC=C(C=C2)C(F)(F)F)C(=O)NC3=C(C=C4C(=C3)C=NN4)F
Method in brief: as §1

[15] = compound: CC1=C(C2=C(C=C1)C(=O)C3=CC=CC=C3N2CCCN)C
Method in brief: as §1

Measured: log2 fold change

WIPF2 (UniProt Q8TF74)
inactive: erlotinib 0.043 | [1] -0.037 | [2] -0.012 | [3] 0.04 | [4] 0.006 | [5] 0.027 | [6] -0.077 | [7] -0.013 | [8] 0.029 | [9] 0.079 | IRAK-1-4 Inhibitor I 0.058 | ibrutinib 0.005 | [10] -0.027 | ralimetinib -0.073 | [11] 0.009 | [12] 0.048 | [13] 0.054 | pinometostat 0.051 | [14] 0.025 | [15] -0.055

WDR26, A0A499FIZ0
inactive: erlotinib -0.09 | [1] -0.049 | [2] 0.02 | [3] 0.055 | [4] -0.078 | [5] 0.052 | [6] -0.038 | [7] -0.002 | [8] 0.031 | [9] -0.058 | IRAK-1-4 Inhibitor I -0.017 | ibrutinib -0.014 | [10] 0.059 | ralimetinib -0.021 | [11] -0.031 | [12] -0.021 | [13] 0.008 | pinometostat 0.017 | [14] 0.026 | [15] -0.111

VGLL4 isoform 4 (UniProt Q14135)
inactive: erlotinib 0.045 | [1] -0.03 | [2] -0.008 | [3] 0.028 | [4] -0.092 | [5] 0.065 | [6] -0.086 | [7] 0.063 | [8] 0.091 | [9] -0.088 | IRAK-1-4 Inhibitor I 0.042 | ibrutinib 0.056 | [10] -0.097 | ralimetinib 0.103 | [11] 0.016 | [12] 0.057 | [13] 0.157 | pinometostat 0.04 | [14] -0.049 | [15] -0.242

WARS (UniProt P23381)
inactive: erlotinib 0.02 | [1] -0.031 | [2] 0.023 | [3] -0.021 | [4] -0.023 | [5] 0.013 | [6] 0.04 | [7] 0.011 | [8] 0.011 | [9] 0.021 | IRAK-1-4 Inhibitor I 0.096 | ibrutinib 0.028 | [10] 0.026 | ralimetinib 0.039 | [11] 0.001 | [12] 0.068 | [13] -0.01 | pinometostat -0.013 | [14] 0.012 | [15] 0.022

WRAP73 (UniProt Q9P2S5)
inactive: erlotinib -0.08 | [1] 0.02 | [2] -0.012 | [3] 0.053 | [4] -0.051 | [5] 0.134 | [6] 0.039 | [7] -0.005 | [8] -0.018 | [9] 0.041 | IRAK-1-4 Inhibitor I 0.055 | ibrutinib 0.014 | [10] -0.019 | ralimetinib -0.045 | [11] -0.02 | [12] 0.126 | [13] 0.024 | pinometostat -0.009 | [14] 0.01 | [15] 0

WDR36 (UniProt Q8NI36)
inactive: erlotinib -0.001 | [1] -0.03 | [2] -0.196 | [3] -0.005 | [4] -0.051 | [5] 0.03 | [6] 0.033 | [7] 0.005 | [8] -0.01 | [9] 0.051 | IRAK-1-4 Inhibitor I -0.046 | ibrutinib -0.036 | [10] 0.053 | ralimetinib 0.095 | [11] 0.071 | [12] 0.202 | [13] 0.133 | pinometostat 0.182 | [14] -0.055 | [15] 0.189

VPS37B (UniProt Q9H9H4)
inactive: erlotinib 0.01 | [1] 0.116 | [2] 0.018 | [3] 0.006 | [4] -0.122 | [5] 0.026 | [6] 0.135 | [7] 0.164 | [8] -0.119 | [9] -0.09 | IRAK-1-4 Inhibitor I 0.057 | ibrutinib 0 | [10] 0.025 | ralimetinib 0.119 | [11] -0.075 | [12] -0.097 | [13] -0.024 | pinometostat -0.002 | [14] 0.036 | [15] 0.082

WDR48 (UniProt Q8TAF3)
inactive: erlotinib 0.015 | [1] 0 | [2] 0.01 | [3] -0.002 | [4] -0.011 | [5] 0.033 | [6] -0.02 | [7] -0.039 | [8] -0.012 | [9] 0.042 | IRAK-1-4 Inhibitor I 0.029 | ibrutinib 0.019 | [10] 0 | ralimetinib -0.041 | [11] 0.063 | [12] 0.058 | [13] -0.024 | pinometostat -0.048 | [14] -0.002 | [15] 0.031

WDR92 (UniProt Q96MX6)
inactive: erlotinib -0.122 | [1] 0.07 | [2] -0.074 | [3] 0.112 | [4] 0 | [5] -0.066 | [6] -0.015 | [7] -0.13 | [8] -0.065 | [9] -0.136 | IRAK-1-4 Inhibitor I -0.022 | ibrutinib 0.041 | [10] -0.04 | ralimetinib 0.037 | [11] -0.111 | [12] -0.026 | [13] 0.02 | pinometostat 0.091 | [14] -0.085 | [15] 0.032

VRK3 (UniProt Q8IV63)
inactive: erlotinib 0.048 | [1] 0.033 | [2] 0.019 | [3] -0.089 | [4] -0.068 | [5] -0.093 | [6] 0.162 | [7] -0.026 | [8] -0.179 | [9] 0.123 | IRAK-1-4 Inhibitor I 0.049 | ibrutinib 0.016 | [10] -0.239 | ralimetinib 0.082 | [11] -0.065 | [12] -0.145 | [13] -0.2 | pinometostat 0.02 | [14] -0.038 | [15] -0.059

VWA5A (UniProt O00534)
inactive: erlotinib 0.066 | [1] -0.007 | [2] 0.03 | [3] 0.045 | [4] 0.008 | [5] 0.002 | [6] -0.049 | [7] -0.008 | [8] 0.069 | [9] -0.021 | IRAK-1-4 Inhibitor I 0.128 | ibrutinib -0.005 | [10] -0.023 | ralimetinib 0.019 | [11] -0.015 | [12] -0.018 | [13] 0.103 | pinometostat 0.075 | [14] -0.114 | [15] -0.085

VPS13A (UniProt Q96RL7)
inactive: erlotinib 0.025 | [1] 0.014 | [2] 0.034 | [3] 0.028 | [4] 0.055 | [5] 0.022 | [6] 0.023 | [7] -0.019 | [8] -0.032 | [9] 0.051 | IRAK-1-4 Inhibitor I 0.057 | ibrutinib -0.024 | [10] -0.029 | ralimetinib -0.018 | [11] -0.053 | [12] -0.029 | [13] -0.005 | pinometostat 0.006 | [14] -0.001 | [15] 0.037

WASHC4 (UniProt Q2M389)
inactive: erlotinib -0.076 | [1] 0.029 | [2] 0.045 | [3] 0.009 | [4] 0.008 | [5] 0.111 | [6] -0.018 | [7] -0.041 | [8] 0.037 | [9] -0.076 | IRAK-1-4 Inhibitor I -0.084 | ibrutinib -0.055 | [10] 0.022 | ralimetinib -0.023 | [11] -0.145 | [12] -0.185 | [13] 0.035 | pinometostat 0.112 | [14] 0.075 | [15] 0.041

WDR89 (UniProt Q96FK6)
inactive: erlotinib -0.014 | [1] -0.018 | [2] 0.029 | [3] 0.017 | [4] -0.03 | [5] 0.067 | [6] -0.046 | [7] -0.014 | [8] 0.016 | [9] 0.06 | IRAK-1-4 Inhibitor I 0.052 | ibrutinib -0.015 | [10] -0.008 | ralimetinib -0.075 | [11] -0.034 | [12] 0.081 | [13] -0.008 | pinometostat -0.036 | [14] 0.009 | [15] 0

VPS45 (UniProt Q9NRW7)
inactive: erlotinib 0.038 | [1] 0.079 | [2] 0.024 | [3] -0.012 | [4] 0.052 | [5] -0.039 | [6] 0.002 | [7] 0.025 | [8] 0.046 | [9] -0.012 | IRAK-1-4 Inhibitor I -0.007 | ibrutinib 0.115 | [10] -0.044 | ralimetinib -0.047 | [11] -0.097 | [12] -0.109 | [13] 0.059 | pinometostat 0.03 | [14] 0.014 | [15] 0.062

VPS26A (UniProt O75436)
inactive: erlotinib -0.033 | [1] 0.05 | [2] 0.057 | [3] 0.054 | [4] 0.045 | [5] 0.073 | [6] 0.017 | [7] 0.024 | [8] -0.034 | [9] 0.037 | IRAK-1-4 Inhibitor I 0.014 | ibrutinib -0.028 | [10] -0.038 | ralimetinib -0.031 | [11] -0.039 | [12] -0.011 | [13] -0.021 | pinometostat 0.011 | [14] -0.033 | [15] 0.02
